According to US20150232546A1 (THROMBOGENICS, published 2015):
These are yes or no findings as the source states them, for the method shown. Some results given as binding are weak or reduced against the parent protein; the word gives no strength.

Protein sequences, listed by entry. Tags and fused reporters are not part of them. Residues count along the entry.
UniProt Q9NRA1, residues 23-345: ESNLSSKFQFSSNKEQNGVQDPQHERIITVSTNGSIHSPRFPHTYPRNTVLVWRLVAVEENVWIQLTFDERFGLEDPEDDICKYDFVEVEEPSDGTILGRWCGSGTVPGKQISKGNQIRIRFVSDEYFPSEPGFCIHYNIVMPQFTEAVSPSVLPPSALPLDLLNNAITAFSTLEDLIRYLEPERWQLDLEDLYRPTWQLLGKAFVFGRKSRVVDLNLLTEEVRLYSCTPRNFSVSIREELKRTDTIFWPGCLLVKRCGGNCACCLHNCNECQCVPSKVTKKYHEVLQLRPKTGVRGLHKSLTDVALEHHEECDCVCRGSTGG

Assays:
[1] = molecular target: full-length human PDGF-C (Example 6) (human) (UniProt Q9NRA1); assay: ELISA
[2] = molecular target: T1, human PDGF-C peptide no. 1 (human); assay: peptide ELISA
T1 sequence (peptide, N-terminally biotinylated): ESNLSSKFQFSSNKE

[3] = molecular target: T2, human PDGF-C peptide no. 10 (human); assay: peptide ELISA
T2 sequence (peptide, N-terminally biotinylated): PRNTVLVWRLVAVEE

[4] = molecular target: T3, human PDGF-C peptide no. 11 (human); assay: peptide ELISA
T3 sequence (peptide, N-terminally biotinylated): LVWRLVAVEENVWIQ

[5] = molecular target: T4, human PDGF-C peptide no. 12 (human); assay: peptide ELISA
T4 sequence (peptide, N-terminally biotinylated): VAVEENVWIQLTFDE

[6] = molecular target: T5, human PDGF-C peptide no. 13 (human); assay: peptide ELISA
T5 sequence (peptide, N-terminally biotinylated): NVWIQLTFDERFGLE

[7] = molecular target: T6, human PDGF-C peptide no. 14 (human); assay: peptide ELISA
T6 sequence (peptide, N-terminally biotinylated): LTFDERFGLEDPEDD

[8] = molecular target: T7, human PDGF-C peptide no. 15 (human); assay: peptide ELISA
T7 sequence (peptide, N-terminally biotinylated): RFGLEDPEDDICKYD

[9] = molecular target: T8, human PDGF-C peptide no. 16 (human); assay: peptide ELISA
T8 sequence (peptide, N-terminally biotinylated): DPEDDICKYDFVEVE

[10] = molecular target: T9, human PDGF-C peptide no. 17 (human); assay: peptide ELISA
T9 sequence (peptide, N-terminally biotinylated): ICKYDFVEVEEPSDG

[11] = molecular target: T10, human PDGF-C peptide no. 18 (human); assay: peptide ELISA
T10 sequence (peptide, N-terminally biotinylated): FVEVEEPSDGTILGR

[12] = molecular target: T11, human PDGF-C peptide no. 19 (human); assay: peptide ELISA
T11 sequence (peptide, N-terminally biotinylated): EPSDGTILGRWCGSG

[13] = molecular target: T12, human PDGF-C peptide no. 2 (human); assay: peptide ELISA
T12 sequence (peptide, N-terminally biotinylated): SKFQFSSNKEQNGVQ

[14] = molecular target: T13, human PDGF-C peptide no. 20 (human); assay: peptide ELISA
T13 sequence (peptide, N-terminally biotinylated): TILGRWCGSGTVPGK

[15] = molecular target: T14, human PDGF-C peptide no. 21 (human); assay: peptide ELISA
T14 sequence (peptide, N-terminally biotinylated): WCGSGTVPGKQISKG

[16] = molecular target: T15, human PDGF-C peptide no. 22 (human); assay: peptide ELISA
T15 sequence (peptide, N-terminally biotinylated): TVPGKQISKGNQIRI

[17] = molecular target: T16, human PDGF-C peptide no. 23 (human); assay: peptide ELISA
T16 sequence (peptide, N-terminally biotinylated): QISKGNQIRIRFVSD

[18] = molecular target: T17, human PDGF-C peptide no. 24 (human); assay: peptide ELISA
T17 sequence (peptide, N-terminally biotinylated): NQIRIRFVSDEYFPS

[19] = molecular target: T18, human PDGF-C peptide no. 25 (human); assay: peptide ELISA
T18 sequence (peptide, N-terminally biotinylated): RFVSDEYFPSEPGFC

[20] = molecular target: T19, human PDGF-C peptide no. 26 (human); assay: peptide ELISA
T19 sequence (peptide, N-terminally biotinylated): EYFPSEPGFCIHYNI

[21] = molecular target: T20, human PDGF-C peptide no. 28 (human); assay: peptide ELISA
T20 sequence (peptide, N-terminally biotinylated): IHYNIVMPQFTEAVS

[22] = molecular target: T21, human PDGF-C peptide no. 29 (human); assay: peptide ELISA
T21 sequence (peptide, N-terminally biotinylated): VMPQFTEAVSPSVLP

[23] = molecular target: T22, human PDGF-C peptide no. 3 (human); assay: peptide ELISA
T22 sequence (peptide, N-terminally biotinylated): SSNKEQNGVQDPQHE

[24] = molecular target: T23, human PDGF-C peptide no. 30 (human); assay: peptide ELISA
T23 sequence (peptide, N-terminally biotinylated): TEAVSPSVLPPSALP

[25] = molecular target: T24, human PDGF-C peptide no. 31 (human); assay: peptide ELISA
T24 sequence (peptide, N-terminally biotinylated): PSVLPPSALPLDLLN

[26] = molecular target: T25, human PDGF-C peptide no. 32 (human); assay: peptide ELISA
T25 sequence (peptide, N-terminally biotinylated): PSALPLDLLNNAITA

[27] = molecular target: T26, human PDGF-C peptide no. 33 (human); assay: peptide ELISA
T26 sequence (peptide, N-terminally biotinylated): LDLLNNAITAFSTLE

[28] = molecular target: T27, human PDGF-C peptide no. 34 (human); assay: peptide ELISA
T27 sequence (peptide, N-terminally biotinylated): NAITAFSTLEDLIRY

[29] = molecular target: T28, human PDGF-C peptide no. 35 (human); assay: peptide ELISA
T28 sequence (peptide, N-terminally biotinylated): FSTLEDLIRYLEPER

[30] = molecular target: T29, human PDGF-C peptide no. 36 (human); assay: peptide ELISA
T29 sequence (peptide, N-terminally biotinylated): DLIRYLEPERWQLDL

B1: anti-PDGF-C antibody 5A2 (antibody, IgG2b, V domains shown)
VH: EVQLVESGGDLVKPGGSLKLSCAASGFTFSNYGMSWVRQTPDKRLEWVATIGSGGHYTYYPDSVKGRFTISRDSAKSTLYLQMSSLKSEDTAIYYCARQAPLWDCSDYWGQGTTLTVSS
VL: DVLMTQTPLSLPVSLGDQASISCRSNQSIVHSNGDTYLEWYLQKPGQSPKLLIYKVSNRFSGVPDRFSGSGSGTDFTLKISRVEAEDLGVYYCFQGSHVPPTFGGGTKLEIK
notes: Mouse monoclonal from hybridoma, IgG2b, kappa; also called mAb 5A2; hybridoma LMBP 9484CB
binding [1]: binds | binding [2]: no binding (tested: 1 µg/mL) | binding [3]: no binding (tested: 1 µg/mL) | binding [4]: no binding (tested: 1 µg/mL) | binding [5]: no binding (tested: 1 µg/mL) | binding [6]: no binding (tested: 1 µg/mL) | binding [7]: no binding (tested: 1 µg/mL) | binding [8]: no binding (tested: 1 µg/mL) | binding [9]: no binding (tested: 1 µg/mL) | binding [10]: no binding (tested: 1 µg/mL) | binding [11]: no binding (tested: 1 µg/mL) | binding [12]: no binding (tested: 1 µg/mL) | binding [13]: no binding (tested: 1 µg/mL) | binding [14]: no binding (tested: 1 µg/mL) | binding [15]: no binding (tested: 1 µg/mL) | binding [16]: no binding (tested: 1 µg/mL) | binding [17]: no binding (tested: 1 µg/mL) | binding [18]: no binding (tested: 1 µg/mL) | binding [19]: no binding (tested: 1 µg/mL) | binding [20]: no binding (tested: 1 µg/mL) | binding [21]: no binding (tested: 1 µg/mL) | binding [22]: no binding (tested: 1 µg/mL) | binding [23]: no binding (tested: 1 µg/mL) | binding [24]: no binding (tested: 1 µg/mL) | binding [25]: no binding (tested: 1 µg/mL) | binding [26]: no binding (tested: 1 µg/mL) | binding [27]: no binding (tested: 1 µg/mL) | binding [28]: no binding (tested: 1 µg/mL) | binding [29]: no binding (tested: 1 µg/mL) | binding [30]: no binding (tested: 1 µg/mL)
